Percent effect of library compounds

The chains behind the UniProt entries cited, without tags or fusion partners.
UniProt P9WFT3, whole entry: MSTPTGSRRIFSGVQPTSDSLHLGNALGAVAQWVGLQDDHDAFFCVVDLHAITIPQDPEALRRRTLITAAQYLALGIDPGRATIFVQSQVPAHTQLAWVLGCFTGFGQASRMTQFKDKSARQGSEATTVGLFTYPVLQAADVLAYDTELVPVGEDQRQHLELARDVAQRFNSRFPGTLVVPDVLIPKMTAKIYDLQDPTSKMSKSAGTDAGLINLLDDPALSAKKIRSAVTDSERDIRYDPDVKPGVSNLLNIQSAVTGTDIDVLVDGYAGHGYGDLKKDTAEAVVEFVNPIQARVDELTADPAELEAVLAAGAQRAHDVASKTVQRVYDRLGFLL

The values are deposited in ChEMBL (CHEMBL3988442, “University of Dundee, Small-Polar-MMV Screening Library” (2021)).

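Enzyme assay of tryptophanyl-tRNA synthetase; the read-out is not stated. Target: Tryptophan-tRNA ligase, Mycobacterium tuberculosis (UniProt P9WFT3). Concentration: 10 µM. Higher most likely means stronger inhibition; the record gives no direction and few retests gave an IC50. Of about 65,000 compounds tested this way, about 64 (0.098%) reached 50% or more in at least one test.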

The filed quantity is “Percent Effect” (%). The controls that fix the scale are not given in the record; negative values are as filed. This is an unselected part of the compounds tested.

| compound | Percent Effect |
|---|---|
| `CCn1cc(CNC2CCN(c3cccc(Cl)c3)C2)cn1` (stereo not given) | -1.569% |
| `O=C(c1cnc2[nH]c(=O)[nH]c(=O)c2c1)N1CCCC1C1CCCCC1` (stereo not given) | -6.208% |
| `CC(C)CN(CCc1ccccc1)Cc1nc2c(cnn2C)c(=O)[nH]1` | -1.467% |
| `CSCC(=O)N1CCCCC1Cn1cc(C)cn1` (stereo not given) | 0.7668% |
| `O=C(CC(F)(F)F)N1CCC2(CCCN(c3nncs3)C2)C1` (stereo not given) | -5.478% |
| `Cc1nn(C)c(C)c1NC(=O)CN1CCOC(Cn2cccn2)C1` (stereo not given) | 0.7323% |
| `O=C(CN1CCCC1)N1CCCC(CNS(=O)(=O)Cc2ccccc2)C1` (stereo not given) | 4.222% |
| `O=C(C[S+]([O-])Cc1csc(C2CCCC2)n1)Nc1ccccc1` (stereo not given) | 2.773% |
| `Nc1cccnc1N1CCC(O)CC1` | 1.001% |
| `CCCn1cc(NC2CCSCC2)cn1` | 3.351% |
| `CCCc1noc(CNC2CCCN(Cc3noc(C4CC4)n3)C2)n1` (stereo not given) | -7.022% |
| `CC(=O)N(CCc1ccccc1)CC(=O)NC(C)(C)C#N` | -3.762% |
| `CS(=O)(=O)N1CCOCC2(CCN(C(=O)c3cnccn3)CC2)C1` | -2.402% |
| `COCCCn1ccc(NC(=O)NCCc2cccnc2)n1` | -0.2329% |
| `Cc1noc(C)c1CNC(=O)N1CCN(Cc2cscn2)CC1` | -2.516% |
| `CCN(Cc1noc(CC(C)C)n1)Cc1ccccc1C(=O)O` | -4.004% |
| `Cn1cccc1C(=O)N1CCC2(CC1)CN(c1ccccc1)C(=O)CO2` | 2.658% |
| `CC1CCCCN1C(=O)c1ccc(Br)s1` (stereo not given) | 1.09% |
| `CN1CCCN(c2ccc(F)cc2CNC(=O)c2cccnc2)CC1` | -3.778% |
| `COc1nccc(N2CC[C@H](CO)[C@@H](O)C2)c1C#N` | 1.34% |
| `O=c1cc2c(nn1CN1CCN(c3ccccc3)CC1)CCCC2` | 0.719% |
| `COC(=O)c1ccoc1COC(=O)CCc1ccc(OC)c(OC)c1` | -3.284% |
| `Cc1ccc(C(CNCc2cnn(C(C)C)c2)N2CCOCC2)s1` (stereo not given) | -3.565% |
| `CN1CCCN(C(=O)c2cnc(Cc3c(Cl)cccc3Cl)nc2O)CC1` | 4.352% |
| `CC(C)(C)N1CCCN(C(=O)c2csc(S(N)(=O)=O)c2)CC1` | -3.018% |
| `CS(=O)(=O)c1ccc(CNC(=O)N2CCC(CO)CC2)cc1` | -4.699% |
| `CCc1csc(C2CCCN(C(=O)COc3cc(C)on3)C2)n1` (stereo not given) | -0.8939% |
| `COCCN(Cc1sccc1C)C(=O)C1CCN(C(C)C)CC1` | 3.333% |
| `Cc1cc(C)c2nc(C)cc(C(=O)N3CC(O)CO3)c2c1` (stereo not given) | -1.54% |
| `COc1ccc(C)cc1C(C)NCc1cccn1C` (stereo not given) | -1.255% |
| `COCCOc1ccc(NC(=O)N2CCCC2c2ccsc2)cn1` (stereo not given) | 1.871% |
| `CCSCCC(C)N(C)C(=O)c1ccc2nncn2c1` (stereo not given) | 1.63% |
| `O=C(O)c1nnn(Cc2ccc(F)cc2)c1-c1cccnc1` | 1.443% |
| `COc1ccc(CN2C[C@H]3CN(c4ccsc4)C(=O)[C@H]3C2)cc1` | 4.272% |
| `Cc1ccc(CNC(=O)NCC(=O)N2CCCC2)c(N2CCCC2)c1` | -6.311% |
| `Cc1nc2c(c(N(C)C)n1)CCN(C(=O)c1ccc(N)nc1)C2` | 5.04% |
| `CN(CCN1CCOC1=O)CC(=O)Nc1ccc(Cl)c(Cl)c1` | -2.311% |
| `Cn1ccnc1CN1CCC(Cn2cc(-c3ccccc3)nn2)CC1` | 3.249% |
| `CN(C)c1nc2n(c(=O)n1)CCN2C(=O)Nc1ccccc1` | -6.621% |
| `O=C(NC1CCCNC1=O)c1ccc2nc(-c3ccc(F)cc3)cn2c1` (stereo not given) | -3.436% |
| `O=S(=O)(Cc1ccc(F)c(Cl)c1)NCCOc1cccnc1` | 1.611% |
| `Cc1noc(C)c1CN(C)C(=O)CCOc1ccc(Cl)cc1` | -0.8576% |
| `COCCc1noc(CN2CC(n3nc(C)cc3C)C2)n1` | -0.9654% |
| `COc1ccc(Oc2ccc(CNC(=O)C3CCS(=O)(=O)C3)cn2)cc1` (stereo not given) | -1.018% |
| `Cc1nc(CN(C)C2CCN(CC3CCCCC3)C2)no1` (stereo not given) | -3.207% |
| `CCNC(=O)[C@@H]1C[C@H](N)CN1C(=O)CCc1ccccc1Cl` | -2.021% |
| `COc1ccccc1CNC(=O)C1=NN(c2ccc(C)cc2)C(=O)CN1` | 0.1676% |
| `COCCNC(=O)C1(Cc2ccccc2-c2ccncc2)CCOCC1` | -4.549% |
| `CC(C)Nc1ncccc1C(=O)NCc1cnc(N(C)C)n1C` | -1.341% |
| `Cc1ccc(C(C(=O)N2CCC(Cc3noc(C)n3)CC2)N(C)C)cc1` (stereo not given) | 5.735% |
| `Cc1nccc(N[C@H]2CN(C(=O)C3(C#N)CCOCC3)C[C@@H]2C(C)C)n1` | -1.713% |
| `Cc1cncc(C(=O)N2CCc3ncc(Cn4cccn4)n3CC2)c1` | 18% |
| `CC(=O)Nc1nc(C(=O)N2CCC(Nc3cccnn3)CC2)cs1` | -2.968% |
| `CC(=O)N1CCc2ncc(CNC(=O)C3CCC3)n2CC1` | -3.721% |

For reference, 6 entries once more:

compound,Percent Effect
Cc1nc(CN(C)C2CCN(CC3CCCCC3)C2)no1 (stereo not given),-3.207%
Cn1cccc1C(=O)N1CCC2(CC1)CN(c1ccccc1)C(=O)CO2,2.658%
CC(=O)N(CCc1ccccc1)CC(=O)NC(C)(C)C#N,-3.762%
CS(=O)(=O)N1CCOCC2(CCN(C(=O)c3cnccn3)CC2)C1,-2.402%
CC(C)(C)N1CCCN(C(=O)c2csc(S(N)(=O)=O)c2)CC1,-3.018%
CN1CCCN(c2ccc(F)cc2CNC(=O)c2cccnc2)CC1,-3.778%